Assay results published in publication PMC10643132.
These are yes or no findings as the source states them, for the method shown. Some results given as binding are weak or reduced against the parent protein; the word gives no strength.

Molecular target: GST–UbV^CDH1
Experiment: pull-down; GST–UbV^CDH1 or GST–Ub with CDH1 or CDC20, GST pulldown, Coomassie-stained SDS–PAGE; n = 3; both purified

binding: binds
Substance: CDH1 (from UniProt Q9UM11 1-496)
